Experimental data as given in US5591717A, “Branched apogenic peptide for inducing apoptosis” (priority 1994, dated 1997).
At least one peptide structure holds a part that was inferred or is arguable (an end, a ring closure or a residue). Ends that are not written are not given here.

Tests used:
[1] = system: 3201 cultures; assay: 3201 cultures with CSarma VR5-BAP alone or with free peptides; format: cell-based, feline; conditions: free peptide 30 μM or 60 μM with 2.84 μM CSarma VR5-BAP
[2] = system: HL60 cells; assay: Intracellular free calcium in HL60 cells, INDO-1 confocal microscopy; format: cell-based, human; conditions: free peptides, 48 μM; HL60, H9, K562 cells
[3] = system: HT1080 cells; assay: HT1080 cell growth; format: cell-based, human; conditions: 2.7 μM, 1 to 5 days
[4] = system: 3201 cell cultures; assay: Effect of individual peptide chain on 3201 cells, trypan blue live/dead counts; format: cell-based, feline; conditions: free peptide alone
[5] = system: HL60 cells; assay: Competitive assay of free CSarma VR5 with CVR5-BAP in HL60 cells; format: cell-based, human
[6] = biological target: T1, calmodulin (Homo sapiens, UniProt P0DP23); assay: Calmodulin binding, non-denaturing polyacrylamide gel electrophoresis; conditions: with or without 0.2 mMol calcium
T1 construct: purchased Calbiochem

Molecule	inhibitory effect on apoptosis induced by CSarma VR5-BAP [1]	change in intracellular calcium [2]	cell growth [3]	induction of apoptosis [4]	abrogation of effects of 6 μM CVR5-BAP ([5]; 30, 60 or 600 μM free peptide)	cytopathic effect ([5]; 30, 60 or 600 μM, 4, 20, and 48 hours)	binding to calmodulin (shift in migration rate) [6]
CC(C)C[C@H](NC(=O)[C@H](Cc1ccc(O)cc1)NC(=O)[C@H](Cc1c[nH]cn1)NC(=O)[C@H](C)NC(=O)CNC(=O)[C@@H](NC(=O)[C@H](Cc1c[nH]cn1)NC(=O)CNC(=O)[C@H](CCC(N)=O)NC(=O)[C@H](CCC(N)=O)NC(=O)[C@@H](NC(=O)[C@H](CCCCN)NC(=O)[C@H](CC(N)=O)NC(=O)[C@H](CS)NC(=O)[C@@H](N)CC(C)C)[C@@H](C)O)[C@@H](C)O)C(=O)O [AGlasgow1 VR5, L C N K T Q Q G H T G A H Y L]	did not have any inhibitory effect	did not cause any changes	enhanced				
LCKKTQKGHKGTHYL [CSarma VR5, L C K K T Q K G H K G T H Y L]	did not have any inhibitory effect	did not cause any changes		does not induce apoptosis	did not abrogate the effects	no cytopathic effect	neither the AGlasgow1 VR5-BNP or CSarma VR5 chain bound to calmodulin
